For this assay, the target named is Flag-SIRT3. Briefly: co-IP; HEK293T co-transfected with tagged ELF5 and tagged sirtuins; precipitation with anti-Flag affinity gel; immunoblot. In general terms: In western blotting, separated proteins are transferred to a membrane and probed.

No constants are given. Whether binding was seen depends on the method and setting. Binding seen in cells or lysates may run through a third protein. Sequences can lack the tags named with a protein.

B1: HA-tagged ELF5 (protein, UniProt Q9UKW6-2 1-255)
chain: MLDSVTHSTFLPNASFCDPLMSWTDLFSNEEYYPAFEHQTACDSYWTSVHPEYWTKRHVWEWLQFCCDQYKLDTNCISFCNFNISGLQLCSMTQEEFVEAAGLCGEYLYFILQNIRTQGYSFFNDAEESKATIKDYADSNCLKTSGIKSQDCHSHSRTSLQSSHLWEFVRDLLLSPEENCGILEWEDREQGIFRVVKSEALAKMWGQRKKNDRMTYEKLSRALRYYYKTGILERVDRRLVYKFGKNAHGWQEDKL
With B1, the binding result was “no binding”.

The record behind these values is paper PMC7979705.
